PubChem BioAssay AID602196 | INSERM | 2012
Shown is a random part of about 23,000 reagents tested. 455 of them (2%) count as active. 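Active includes both protection and sensitisation; some change values fall well beyond the stated -50 to +50 range.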 Reagents against one gene are numbered here. Not given: the amount of reagent.

- Screen: 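Genes whose knock-down alters cisplatin killing of lung cancer cells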
- Cell system: human A549 lung cancer cells
- Reagent: siRNA pair against human genes
- Duration: 48 h transfection before cisplatin; time from cisplatin to read-out not stated
- Treatment: cisplatin at a dose killing half of control-siRNA cells; exact dose and duration not given
- Detection: 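Shift in cisplatin death relative to control siRNA, from -50 (all cells die) to +50 (no cells die); siRNAs harmful on their own scored 0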
- Reading the numbers: two-siRNA summed score (-2 to +2): higher = both siRNAs protect from cisplatin killing; -2 means both sensitise; mean protection from cisplatin (shift in death) and protection from cisplatin (shift in death), siRNA C and protection from cisplatin (shift in death), siRNA D: higher = protection from cisplatin killing
- Hit rule: 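Each siRNA scores 0 if harmful alone by LDH or WST-1, otherwise +1 if it reduces and -1 if it increases cisplatin killing; a gene is active when both siRNAs agree (sum +2 or -2)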
- Calls: active = both siRNAs shift cisplatin killing the same way; inactive = no consistent shift, or siRNA harmful alone

gene symbol,reagent no.,two-siRNA summed score (-2 to +2),mean protection from cisplatin (shift in death) (%),"protection from cisplatin (shift in death), siRNA C (%)","protection from cisplatin (shift in death), siRNA D (%)",outcome
RNF17 (ring finger protein 17),1,0,-0.9,-5.1,3.3,inactive
RNF17 (ring finger protein 17),2,0,13.7,6.2,21.3,inactive
RSPO2 (R-spondin 2),1,1,16.9,12.6,21.2,inactive
EP400P1 (EP400 pseudogene 1),1,1,10.6,16,5.3,inactive
ZNF658 (zinc finger protein 658),1,0,1.9,-9,12.8,inactive
DOC2B (double C2 domain beta),1,0,-4.2,13.3,-21.7,inactive
SPRYD7 (SPRY domain containing 7),1,0,6.3,-4.5,17.1,inactive
LOC401078,1,0,22.2,18.8,25.7,inactive
SLC10A6,1,0,-5.8,7.7,-19.2,inactive
FBXL2 (F-box and leucine rich repeat protein 2),1,-1,-10.1,-24.3,4,inactive
OVOL1 (ovo like transcriptional repressor 1),1,-1,-7,1.3,-15.2,inactive
RBM20 (RNA binding motif protein 20),1,1,13.9,20.2,7.5,inactive
LOC400369,1,0,13,19.4,6.5,inactive
LOC338870,1,0,8.3,-1.8,18.3,inactive
LOC400627,1,0,9.4,16.2,2.7,inactive
NKD1 (NKD inhibitor of Wnt signaling pathway 1),1,0,-2.6,-2.8,-2.4,inactive
SENP5 (SUMO specific peptidase 5),1,0,2.1,9.1,-5,inactive
ZC2HC1A (zinc finger C2HC-type containing 1A),1,0,5.5,-2.1,13.1,inactive
TLN2 (talin 2),1,1,27.7,38.7,16.8,inactive
CASP9 (caspase 9),1,0,6.7,9.7,3.6,inactive
TGIF1 (TGFB induced factor homeobox 1),1,0,7.2,12.6,1.8,inactive
PAMR1,1,0,4.2,10.6,-2.1,inactive
ADAMTS7 (ADAM metallopeptidase with thrombospondin type 1 motif 7),1,0,6.1,10.3,1.8,inactive
HNRNPA1 (heterogeneous nuclear ribonucleoprotein A1),1,0,4.9,6.6,3.3,inactive
HS3ST3B1 (heparan sulfate-glucosamine 3-sulfotransferase 3B1),1,0,4.6,2.5,6.7,inactive
S100A11 (S100 calcium binding protein A11),1,1,4.6,-11.4,20.7,inactive
SOCS6 (suppressor of cytokine signaling 6),1,1,26.3,37.7,14.9,inactive
LOC284379,1,0,7.6,7.1,8.1,inactive
CLDN7 (claudin 7),1,0,18.1,18.4,17.8,inactive
LOC400030,1,0,10.4,14.8,6.1,inactive
FFAR3 (free fatty acid receptor 3),1,0,1.2,12.2,-9.8,inactive
HCAR1 (hydroxycarboxylic acid receptor 1),1,1,6.7,0.2,13.3,inactive
ARHGEF17 (Rho guanine nucleotide exchange factor 17),1,0,7.3,12.6,2.1,inactive
JAML (junction adhesion molecule like),1,0,7.5,-1.8,16.8,inactive
LRRC30 (leucine rich repeat containing 30),1,0,-2.1,-12.2,8,inactive
PTPRD (protein tyrosine phosphatase receptor type D),1,0,0.7,-6.8,8.2,inactive
LOC442385,1,1,4.6,-11,20.2,inactive
CDC73 (cell division cycle 73),1,0,1.1,6.4,-4.1,inactive
BCL7A (BAF chromatin remodeling complex subunit BCL7A),1,-1,-3.9,-12.2,4.4,inactive
"SYNC (syncoilin, intermediate filament protein)",1,0,8.7,13.4,3.9,inactive
"RAB40B (RAB40B, member RAS oncogene family)",1,0,2.6,1.5,3.7,inactive
NEU1 (neuraminidase 1),1,0,3.1,6.1,0,inactive
PDE4A (phosphodiesterase 4A),1,0,12.8,-2.9,28.5,inactive
ZNF511 (zinc finger protein 511),1,0,9.3,3.9,14.6,inactive
SLC44A1,1,0,9.9,9.2,10.5,inactive
NRSN1 (neurensin 1),1,0,-10,-8.1,-11.9,inactive
LOC441424,1,0,6.9,6.7,7,inactive
POTEG (POTE ankyrin domain family member G),1,0,5.8,12,-0.4,inactive
TRIM66 (tripartite motif containing 66),1,0,-1.1,8.8,-10.9,inactive
CTAGE4 (CTAGE family member 4),1,0,-2,-1.8,-2.3,inactive
MRPL40 (mitochondrial ribosomal protein L40),1,0,11.8,9.8,13.8,inactive
TXNL4B (thioredoxin like 4B),1,0,6.4,10.7,2.1,inactive
ZNF207 (zinc finger protein 207),1,0,-6.1,-13.2,1,inactive
ARC (activity regulated cytoskeleton associated protein),1,1,13.3,9.4,17.2,inactive
GOLGA7B (golgin A7 family member B),1,0,3.9,3.7,4.1,inactive
SLC67A1-AS (SLC67A1 antisense RNA),1,1,20.2,7.7,32.7,inactive
C16orf78 (chromosome 16 open reading frame 78),1,0,-7.6,-10,-5.2,inactive

In a second layout: 8 of the entries above.
gene symbol	reagent no.	two-siRNA summed score (-2 to +2)	mean protection from cisplatin (shift in death) (%)	protection from cisplatin (shift in death), siRNA C (%)	protection from cisplatin (shift in death), siRNA D (%)	outcome
RNF17 (ring finger protein 17)	2	0	13.7	6.2	21.3	inactive
RSPO2 (R-spondin 2)	1	1	16.9	12.6	21.2	inactive
EP400P1 (EP400 pseudogene 1)	1	1	10.6	16	5.3	inactive
ZNF658 (zinc finger protein 658)	1	0	1.9	-9	12.8	inactive
DOC2B (double C2 domain beta)	1	0	-4.2	13.3	-21.7	inactive
SPRYD7 (SPRY domain containing 7)	1	0	6.3	-4.5	17.1	inactive
LOC401078	1	0	22.2	18.8	25.7	inactive
SLC10A6	1	0	-5.8	7.7	-19.2	inactive
